Experimental data: PubChem BioAssay AID1259405 (NCATS, 2018)

- Screen: 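Mouse-designed siRNAs used to find CHO productivity engineering targets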 (primary screen)
- Cells: Chinese hamster CHO-K1 ovary cells with stable secreted eGFP expression
- Knock-down reagent: single siRNA against mouse genes, 0.8 pmol siRNA per well (2 µl of 400 nM stock)
- Duration: 3 days
- Detection: 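Per-well intracellular GFP measured by laser scanning cytometry, plus viability from ATP luminescence, each relative to plate median of non-targeting control wells, in %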
- Direction: GFP, % of control: higher = more GFP per well, higher productivity; viability (ATP), % of control: higher = more viable cells (more ATP)
- Call rule: 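a knock-down is called active if GFP reaches 120% or more of non-targeting control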
The whole screen tested about 50,000 reagents; below is a random part of them. In the full data, about 4,000 (8%) got an active call. 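Mouse siRNA library applied to hamster cells; one well for each siRNA.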 A number with no mark means an inactive call. Reagents against one gene are numbered here.

The opening 2 entries, ahead of the listing:
Pnliprp1 (pancreatic lipase related protein 1) #1: GFP, % of control = 121 (active); viability (ATP), % of control = 99
Pnliprp1 (pancreatic lipase related protein 1) #2: GFP, % of control = 142 (active); viability (ATP), % of control = 129

The listing, from the first entry:
Pnliprp1 (pancreatic lipase related protein 1) #1: GFP, % of control = 121 (active); viability (ATP), % of control = 99
Pnliprp1 (pancreatic lipase related protein 1) #2: GFP, % of control = 142 (active); viability (ATP), % of control = 129
Pnliprp1 (pancreatic lipase related protein 1) #3: GFP, % of control = 75.1; viability (ATP), % of control = 85.7
Best1 (bestrophin 1) #1: GFP, % of control = 109; viability (ATP), % of control = 84.7
Best1 (bestrophin 1) #2: GFP, % of control = 82.8; viability (ATP), % of control = 65
Best1 (bestrophin 1) #3: GFP, % of control = 155 (active); viability (ATP), % of control = 98.8
Sez6l2 (seizure related 6 homolog like 2) #1: GFP, % of control = 36.3; viability (ATP), % of control = 45.6
Sez6l2 (seizure related 6 homolog like 2) #2: GFP, % of control = 147 (active); viability (ATP), % of control = 88.1
Sez6l2 (seizure related 6 homolog like 2) #3: GFP, % of control = 41.8; viability (ATP), % of control = 58.4
Or5g27 (olfactory receptor family 5 subfamily G member 27) #1: GFP, % of control = 141 (active); viability (ATP), % of control = 148
Or5g27 (olfactory receptor family 5 subfamily G member 27) #2: GFP, % of control = 84.6; viability (ATP), % of control = 108
Or5g27 (olfactory receptor family 5 subfamily G member 27) #3: GFP, % of control = 45.4; viability (ATP), % of control = 71.1
Elp2 (elongator acetyltransferase complex subunit 2) #1: GFP, % of control = 115; viability (ATP), % of control = 101
Elp2 (elongator acetyltransferase complex subunit 2) #2: GFP, % of control = 65.7; viability (ATP), % of control = 96.3
Elp2 (elongator acetyltransferase complex subunit 2) #3: GFP, % of control = 65; viability (ATP), % of control = 78.8
Matn1 (matrilin 1, cartilage matrix protein) #1: GFP, % of control = 89.6; viability (ATP), % of control = 122
Matn1 (matrilin 1, cartilage matrix protein) #2: GFP, % of control = 58.4; viability (ATP), % of control = 70.2
